Measurements reported in PubChem BioAssay AID1259294 (Sanger Institute, 2017).
This is a random part of 160 deposited reagents. Of all reagents, 43 (27%) were called active. 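Calls mean synergy with any one drug, not lethality of knock-down alone; BYL719 1 µM, cetuximab 5 µg/ml, trametinib 10 nM barely cut viability.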 The numbers tell different reagents against one gene apart. No viability above 1 is reported: the scale is capped. The record does not give: the amount of reagent, the time to read-out.

Test: 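Knock-downs that boost anti-cancer drug killing in colorectal cancer cells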 (follow-up of hits)
Cells: human CL40 colorectal cancer cells
Knock-down reagent: single siRNA against human genes
Challenge: anchor drug or DMSO vehicle added to knock-down cells: BYL719 1 µM, cetuximab 5 µg/ml, trametinib 10 nM
Measured: 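Cell viability after knock-down with vehicle or drug, each replicate set against non-targeting pool 2 and then averaged; synergy score weighs the observed combined effect against the expected one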
Scale: synergy score with trametinib and synergy score with BYL719 and synergy score with cetuximab: higher = stronger synergistic (synthetic lethal) killing; viability, knock-down alone: higher = more cells survive knock-down; viability, knock-down plus trametinib: higher = more cells survive combination
Hit rule: 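Called synergy with a drug when the synergy score is above 0.10 for at least one anchor drug, otherwise no synergy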
Meaning of the calls: active = synergy with a drug; inactive = no synergy

Gene | siRNA no. | synergy score with trametinib | synergy score with BYL719 | synergy score with cetuximab | viability, knock-down alone (fraction of control) | viability, knock-down plus trametinib (fraction of control) | outcome
CDKN2D | 1 | 0.104 | -0.0654 | -0.13 | 0.586 | 0.163 | active
CDKN2D | 2 | 0.176 | -0.0633 | -0.0753 | 0.967 | 0.264 | active
CDKN2D | 3 | -0.061 | -0.327 | -0.106 | 1 | 0.517 | inactive
CDKN2D | 4 | -0.00935 | -0.0974 | -0.221 | 0.308 | 0.15 | inactive
SF3B1 | 1 | -0.0447 | -0.0493 | -0.00185 | 0.152 | 0.114 | inactive
SF3B1 | 2 | -0.0119 | -0.0224 | -0.00716 | 0.212 | 0.108 | inactive
SF3B1 | 3 | 0.046 | 0.019 | -0.0133 | 0.305 | 0.093 | inactive
SF3B1 | 4 | -0.0501 | -0.0565 | -0.0301 | 0.124 | 0.107 | inactive
IRAK3 | 1 | 0.105 | 0.0666 | -0.108 | 0.68 | 0.204 | active
IRAK3 | 2 | 0.0618 | -0.0296 | -0.265 | 0.738 | 0.275 | inactive
IRAK3 | 3 | -0.127 | -0.193 | -0.258 | 0.648 | 0.422 | inactive
IRAK3 | 4 | 0.194 | 0.0029 | 0.00462 | 1 | 0.261 | active
PRAG1 | 1 | 0.0534 | 0.117 | 0.0452 | 0.706 | 0.268 | active
PRAG1 | 2 | 0.0111 | -0.0821 | 0.0798 | 0.949 | 0.421 | inactive
PRAG1 | 3 | -0.134 | -0.143 | 0.00991 | 0.933 | 0.559 | inactive
PRAG1 | 4 | -0.0306 | -0.155 | -0.118 | 0.977 | 0.476 | inactive
IKBKB | 1 | -0.178 | -0.0104 | -0.0114 | 0.807 | 0.546 | inactive
IKBKB | 2 | -0.0896 | -0.128 | -0.114 | 0.812 | 0.46 | inactive
IKBKB | 3 | -0.0884 | -0.13 | -0.00755 | 1 | 0.544 | inactive
IKBKB | 4 | -0.016 | -0.257 | -0.0795 | 0.743 | 0.354 | inactive
RPS6KA4 | 1 | 0.0279 | -0.22 | -0.1 | 0.7 | 0.291 | inactive
RPS6KA4 | 2 | 0.149 | 0.0513 | -0.112 | 0.85 | 0.238 | active
RPS6KA4 | 3 | -0.0218 | -0.279 | -0.0883 | 0.812 | 0.392 | inactive
RPS6KA4 | 4 | 0.141 | 0.0447 | -0.167 | 0.66 | 0.159 | active
MPP3 | 1 | 0.029 | -0.377 | -0.195 | 0.9 | 0.381 | inactive
MPP3 | 2 | 0.0386 | -0.29 | -0.0439 | 0.74 | 0.299 | inactive
MPP3 | 3 | 0.25 | 0.195 | -0.271 | 0.815 | 0.121 | active
MPP3 | 4 | -0.0569 | -0.399 | -0.189 | 0.514 | 0.291 | inactive
IRAK1 | 1 | 0.15 | 0.081 | -0.106 | 1 | 0.306 | active
IRAK1 | 2 | -0.0483 | -0.204 | -0.108 | 0.998 | 0.503 | inactive
IRAK1 | 3 | 0.159 | 0.0651 | -0.114 | 0.872 | 0.238 | active
IRAK1 | 4 | -0.179 | -0.377 | -0.157 | 0.926 | 0.601 | inactive

The list goes on, starting with the last 5 of the part before.
Gene | siRNA no. | synergy score with trametinib | synergy score with BYL719 | synergy score with cetuximab | viability, knock-down alone (fraction of control) | viability, knock-down plus trametinib (fraction of control) | outcome
MPP3 | 4 | -0.0569 | -0.399 | -0.189 | 0.514 | 0.291 | inactive
IRAK1 | 1 | 0.15 | 0.081 | -0.106 | 1 | 0.306 | active
IRAK1 | 2 | -0.0483 | -0.204 | -0.108 | 0.998 | 0.503 | inactive
IRAK1 | 3 | 0.159 | 0.0651 | -0.114 | 0.872 | 0.238 | active
IRAK1 | 4 | -0.179 | -0.377 | -0.157 | 0.926 | 0.601 | inactive
HSPB8 | 1 | 0.133 | -0.0988 | -0.0578 | 0.902 | 0.278 | active
HSPB8 | 2 | -0.00557 | -0.134 | 0.0368 | 1 | 0.461 | inactive
HSPB8 | 3 | -0.109 | -0.197 | -0.163 | 0.663 | 0.412 | inactive
HSPB8 | 4 | 0.162 | -0.00559 | 0.000562 | 0.789 | 0.198 | active
GUCY2D | 1 | 0.00173 | -0.0505 | -0.0899 | 0.985 | 0.447 | inactive
GUCY2D | 2 | 0.133 | 0.0549 | -0.0345 | 0.878 | 0.267 | active
GUCY2D | 3 | -0.0319 | -0.0481 | -0.0565 | 0.48 | 0.251 | inactive
GUCY2D | 4 | 0.132 | -0.313 | -0.068 | 1 | 0.324 | active
CAMK2N1 | 1 | 0.0171 | -0.0737 | -0.106 | 1 | 0.438 | inactive
CAMK2N1 | 2 | -0.178 | -0.384 | -0.155 | 0.899 | 0.587 | inactive
CAMK2N1 | 3 | -0.0439 | -0.101 | -0.0404 | 0.947 | 0.475 | inactive
CAMK2N1 | 4 | -0.0917 | -0.341 | -0.0193 | 0.378 | 0.264 | inactive
GRK5 | 1 | 0.134 | -0.0117 | -0.133 | 0.97 | 0.308 | active
GRK5 | 2 | 0.124 | -0.0588 | -0.0984 | 0.857 | 0.266 | active
GRK5 | 3 | 0.152 | 0.0106 | -0.182 | 0.915 | 0.264 | active
GRK5 | 4 | 0.0796 | -0.0191 | -0.000505 | 0.955 | 0.355 | inactive
MAPKAPK2 | 1 | 0.055 | 0.0278 | -0.0475 | 0.843 | 0.329 | inactive
MAPKAPK2 | 2 | -0.21 | -0.404 | -0.0677 | 0.74 | 0.547 | inactive
MAPKAPK2 | 3 | 0.00389 | -0.256 | -0.00254 | 0.998 | 0.451 | inactive
MAPKAPK2 | 4 | -0.0746 | -0.272 | -0.139 | 0.959 | 0.512 | inactive
